# Some of the results follow.
# Amino acid sequences for entries named in this document (tags omitted). A change or cut given only in a name is not applied to a line headed by its entry.
# UniProt O95396: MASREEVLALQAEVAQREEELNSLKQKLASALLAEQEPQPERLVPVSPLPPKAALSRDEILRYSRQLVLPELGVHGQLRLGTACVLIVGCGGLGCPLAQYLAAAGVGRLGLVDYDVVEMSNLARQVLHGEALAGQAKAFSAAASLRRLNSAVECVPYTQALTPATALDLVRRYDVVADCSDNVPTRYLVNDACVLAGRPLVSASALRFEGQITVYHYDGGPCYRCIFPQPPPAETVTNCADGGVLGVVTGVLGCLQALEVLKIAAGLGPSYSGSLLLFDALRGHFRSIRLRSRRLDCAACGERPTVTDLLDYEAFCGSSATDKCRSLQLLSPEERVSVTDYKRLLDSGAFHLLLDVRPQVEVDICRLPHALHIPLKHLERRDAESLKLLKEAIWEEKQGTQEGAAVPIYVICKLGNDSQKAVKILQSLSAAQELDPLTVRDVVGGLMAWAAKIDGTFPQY
# UniProt Q8NBR6: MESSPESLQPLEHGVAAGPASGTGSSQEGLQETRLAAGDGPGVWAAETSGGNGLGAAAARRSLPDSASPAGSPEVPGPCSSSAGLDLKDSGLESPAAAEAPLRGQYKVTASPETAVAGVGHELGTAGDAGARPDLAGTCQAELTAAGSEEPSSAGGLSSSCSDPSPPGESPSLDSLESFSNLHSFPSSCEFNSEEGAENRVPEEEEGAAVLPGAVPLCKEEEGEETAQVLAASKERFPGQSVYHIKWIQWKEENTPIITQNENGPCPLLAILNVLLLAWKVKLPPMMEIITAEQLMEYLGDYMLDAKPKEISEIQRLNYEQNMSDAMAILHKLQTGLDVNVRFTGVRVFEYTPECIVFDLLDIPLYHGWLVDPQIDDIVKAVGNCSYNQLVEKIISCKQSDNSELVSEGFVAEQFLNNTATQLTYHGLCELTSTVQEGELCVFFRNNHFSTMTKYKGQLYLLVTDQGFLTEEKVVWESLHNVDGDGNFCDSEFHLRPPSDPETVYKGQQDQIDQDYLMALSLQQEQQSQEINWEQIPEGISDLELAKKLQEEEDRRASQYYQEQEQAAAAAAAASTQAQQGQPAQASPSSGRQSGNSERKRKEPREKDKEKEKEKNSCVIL
# UniProt O95297: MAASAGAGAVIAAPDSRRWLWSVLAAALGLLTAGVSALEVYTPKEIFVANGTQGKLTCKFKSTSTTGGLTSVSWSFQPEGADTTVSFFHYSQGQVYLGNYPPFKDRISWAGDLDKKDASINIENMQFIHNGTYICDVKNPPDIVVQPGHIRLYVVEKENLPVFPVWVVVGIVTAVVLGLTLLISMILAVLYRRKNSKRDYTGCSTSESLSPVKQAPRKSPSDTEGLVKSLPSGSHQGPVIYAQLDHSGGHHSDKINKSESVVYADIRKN
# UniProt Q5TGZ0: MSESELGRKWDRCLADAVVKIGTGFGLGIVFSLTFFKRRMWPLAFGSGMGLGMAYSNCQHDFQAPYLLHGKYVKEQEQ
# UniProt Q13064: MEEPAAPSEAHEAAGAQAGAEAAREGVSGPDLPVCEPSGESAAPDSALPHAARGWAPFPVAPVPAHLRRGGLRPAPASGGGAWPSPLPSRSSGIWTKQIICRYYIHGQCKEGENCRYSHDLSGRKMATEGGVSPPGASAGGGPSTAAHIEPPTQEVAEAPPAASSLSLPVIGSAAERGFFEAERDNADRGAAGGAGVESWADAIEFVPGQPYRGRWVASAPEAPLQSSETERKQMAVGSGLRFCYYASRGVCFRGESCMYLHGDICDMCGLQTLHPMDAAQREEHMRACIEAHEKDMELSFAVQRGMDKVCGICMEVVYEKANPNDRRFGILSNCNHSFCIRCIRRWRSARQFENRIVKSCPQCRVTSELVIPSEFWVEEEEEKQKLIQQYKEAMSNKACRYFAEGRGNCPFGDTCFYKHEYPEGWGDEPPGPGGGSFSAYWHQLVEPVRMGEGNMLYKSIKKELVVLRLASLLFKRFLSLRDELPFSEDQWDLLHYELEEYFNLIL
# UniProt Q9UJG1: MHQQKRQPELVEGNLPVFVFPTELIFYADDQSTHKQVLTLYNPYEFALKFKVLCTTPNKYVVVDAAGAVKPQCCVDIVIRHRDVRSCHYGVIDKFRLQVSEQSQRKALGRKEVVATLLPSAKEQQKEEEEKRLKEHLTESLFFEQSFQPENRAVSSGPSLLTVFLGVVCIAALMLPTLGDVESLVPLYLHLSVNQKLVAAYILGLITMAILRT
# UniProt Q99549: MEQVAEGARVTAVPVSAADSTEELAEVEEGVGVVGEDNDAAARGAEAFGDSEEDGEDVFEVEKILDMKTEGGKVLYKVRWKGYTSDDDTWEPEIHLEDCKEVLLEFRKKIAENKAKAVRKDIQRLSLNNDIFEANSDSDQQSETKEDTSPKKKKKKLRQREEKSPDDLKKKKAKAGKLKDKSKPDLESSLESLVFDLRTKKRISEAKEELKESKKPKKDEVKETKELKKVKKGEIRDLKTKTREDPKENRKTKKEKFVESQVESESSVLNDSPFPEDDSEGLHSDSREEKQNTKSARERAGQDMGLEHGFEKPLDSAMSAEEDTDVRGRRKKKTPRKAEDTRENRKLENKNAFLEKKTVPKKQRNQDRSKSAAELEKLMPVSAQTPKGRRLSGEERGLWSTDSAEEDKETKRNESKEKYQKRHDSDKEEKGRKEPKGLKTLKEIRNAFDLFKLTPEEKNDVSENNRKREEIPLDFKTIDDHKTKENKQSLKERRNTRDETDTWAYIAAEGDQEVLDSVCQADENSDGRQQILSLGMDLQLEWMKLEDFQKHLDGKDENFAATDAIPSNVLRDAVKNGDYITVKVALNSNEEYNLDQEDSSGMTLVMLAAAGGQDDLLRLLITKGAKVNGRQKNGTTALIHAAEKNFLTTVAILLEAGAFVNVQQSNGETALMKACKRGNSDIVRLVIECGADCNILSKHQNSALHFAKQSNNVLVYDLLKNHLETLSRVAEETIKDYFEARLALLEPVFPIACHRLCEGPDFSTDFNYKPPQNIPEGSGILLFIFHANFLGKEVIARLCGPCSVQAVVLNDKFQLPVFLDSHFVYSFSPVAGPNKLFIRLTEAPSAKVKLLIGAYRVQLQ
# UniProt Q9Y6X9: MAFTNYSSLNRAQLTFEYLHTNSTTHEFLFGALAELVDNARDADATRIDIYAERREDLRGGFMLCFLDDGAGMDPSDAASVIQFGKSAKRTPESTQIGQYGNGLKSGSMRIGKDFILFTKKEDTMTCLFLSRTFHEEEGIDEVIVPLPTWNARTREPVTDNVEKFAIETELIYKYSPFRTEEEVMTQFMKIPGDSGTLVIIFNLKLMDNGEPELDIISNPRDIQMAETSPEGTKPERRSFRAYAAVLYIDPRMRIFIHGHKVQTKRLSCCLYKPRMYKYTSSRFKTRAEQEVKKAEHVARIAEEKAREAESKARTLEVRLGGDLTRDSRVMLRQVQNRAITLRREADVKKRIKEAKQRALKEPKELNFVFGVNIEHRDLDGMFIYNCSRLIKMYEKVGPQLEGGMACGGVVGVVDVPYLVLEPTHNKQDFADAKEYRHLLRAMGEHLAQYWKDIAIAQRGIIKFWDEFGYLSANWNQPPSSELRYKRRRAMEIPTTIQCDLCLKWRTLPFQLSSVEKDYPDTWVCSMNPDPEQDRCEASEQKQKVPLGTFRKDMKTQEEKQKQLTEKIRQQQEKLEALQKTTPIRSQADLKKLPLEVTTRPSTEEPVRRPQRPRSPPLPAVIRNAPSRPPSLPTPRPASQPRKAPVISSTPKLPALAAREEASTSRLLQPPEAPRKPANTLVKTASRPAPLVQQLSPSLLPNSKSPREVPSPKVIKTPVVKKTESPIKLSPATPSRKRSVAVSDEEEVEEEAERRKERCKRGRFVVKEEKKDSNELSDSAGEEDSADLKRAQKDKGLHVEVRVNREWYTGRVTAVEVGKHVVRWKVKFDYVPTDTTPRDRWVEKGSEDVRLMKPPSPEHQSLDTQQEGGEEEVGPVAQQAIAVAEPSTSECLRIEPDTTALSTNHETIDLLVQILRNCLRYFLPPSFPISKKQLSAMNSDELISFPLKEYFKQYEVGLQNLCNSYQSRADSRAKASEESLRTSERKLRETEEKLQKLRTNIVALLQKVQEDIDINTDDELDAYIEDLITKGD
# UniProt Q86TA1: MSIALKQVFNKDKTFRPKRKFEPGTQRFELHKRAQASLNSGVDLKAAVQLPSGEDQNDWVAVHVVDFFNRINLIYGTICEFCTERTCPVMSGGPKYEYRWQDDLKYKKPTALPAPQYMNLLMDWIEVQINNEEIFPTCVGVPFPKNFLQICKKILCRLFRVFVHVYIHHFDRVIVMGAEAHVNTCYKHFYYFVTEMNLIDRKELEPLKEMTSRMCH
# UniProt Q70IA6: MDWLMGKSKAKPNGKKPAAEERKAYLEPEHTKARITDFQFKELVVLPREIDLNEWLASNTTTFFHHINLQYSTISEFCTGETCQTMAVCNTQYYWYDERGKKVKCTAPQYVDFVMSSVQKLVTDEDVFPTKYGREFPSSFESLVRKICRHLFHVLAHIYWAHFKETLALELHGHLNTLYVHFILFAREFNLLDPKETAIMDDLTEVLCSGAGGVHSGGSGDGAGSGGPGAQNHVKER
# Columns and labels:
# Assay in all cases: log2 fold change, soluble protein after heating vs DMSO (PISA); higher = thermal stabilisation; K562 cells, 10 uM, 30 min; active = over 0.2 and 3.5 SD of the protein, either way, in both replicates (recomputed)
# [1] = compound: Cc1ccc(NC(=O)c2ccc(CN3CC[C@H](N(C)C)C3)c(C(F)(F)F)c2)cc1Nc1nccc(-c2cncnc2)n1 [bafetinib]
# Procedure, shortened: (§1)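 K562 cells at 2×10^6 cells/mL were given 10 μM compound for 30 min. Aliquots then went through 3 min of heating across 48°C-58°C, were pooled, and were extracted in PBS with 0.5% NP-40 at 4°C, and the supernatant after 21,000xg for 90 min was quantified by TMTpro 16plex LC-MS/MS with channel sums equalised. Thermal stability relative to control samples, from duplicates, is given as log2 fold change.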
# [2] = compound: Cc1cccc(CC(=O)N2CCc3c2ccc(-c2cn(C)c4ncnc(N)c24)c3F)n1
# Procedure, shortened: as §1
# [3] = compound: Cc1cn(-c2cc(NC(=O)c3ccc(C)c(Nc4nccc(-c5cccnc5)n4)c3)cc(C(F)(F)F)c2)cn1 [nilotinib]
# Procedure, shortened: as §1
# [4] = compound: Cc1nc(Nc2n[nH]c3c2CN(C(=O)N[C@H](CN(C)C)c2ccccc2)C3(C)C)c2sccc2n1
# Procedure, shortened: as §1
# [5] = compound: Cc1ncc(-c2ccnc(Nc3ccc(S(C)(=O)=O)cc3)n2)n1C(C)C
# Procedure, shortened: as §1
# [6] = compound: Cn1cc(-c2ccc3c(c2)CCN3C(=O)Cc2cccc(C(F)(F)F)c2)c2c(N)ncnc21
# Procedure, shortened: as §1
# [7] = compound: Cn1cncc1[C@@](N)(c1ccc(Cl)cc1)c1ccc2c(c1)c(-c1cccc(Cl)c1)cc(=O)n2C [tipifarnib]
# Procedure, shortened: as §1
# [8] = compound: FC(F)(F)c1ccc(/C=C/c2nc(COc3ccc(CCCCn4ccnn4)cc3)co2)cc1 [mubritinib]
# Procedure, shortened: as §1
# [9] = compound: NC(=O)Nc1cc(-c2cccc(F)c2)sc1C(=O)N[C@H]1CCCNC1
# Procedure, shortened: as §1
# [10] = compound: NC(=O)c1cnc(N[C@@H]2CCCC[C@@H]2N)nc1Nc1cccc(-n2nccn2)c1
# Procedure, shortened: as §1
# [11] = compound: NC1(c2ccc(-c3nc4ccn5c(=O)[nH]nc5c4cc3-c3ccccc3)cc2)CCC1
# Procedure, shortened: as §1
# [12] = compound: NCC(=O)Nc1ccc(-n2nc(C(F)(F)F)cc2-c2ccc3c(ccc4ccccc43)c2)cc1
# Procedure, shortened: as §1
# [13] = compound: Nc1ccccc1NC(=O)c1ccc(CNC(=O)OCc2cccnc2)cc1 [entinostat]
# Procedure, shortened: as §1
# [14] = compound: O=C(CCCCCCC(=O)Nc1ccccc1)NO [vorinostat]
# Procedure, shortened: as §1
# [15] = compound: O=C(O)c1ccc2c(c1)nc(Nc1cccc(Cl)c1)c1ccncc12 [silmitasertib]
# Procedure, shortened: as §1
# [16] = compound: O=C1NC(=O)C(c2cnc3ccccn23)=C1c1cn2c3c(cc(F)cc13)CN(C(=O)N1CCCCC1)CC2
# Procedure, shortened: as §1
# [17] = compound: Cc1nc(Nc2ncc(C(=O)Nc3c(C)cccc3Cl)s2)cc(N2CCN(CCO)CC2)n1 [dasatinib]
# Procedure, shortened: as §1
# [18] = compound: Cn1cc(-c2ccc3nnc(C(F)(F)c4ccc5ncccc5c4)n3n2)cn1
# Procedure, shortened: as §1
# [19] = compound: O=C(CCCCCCNC(=O)c1cnc(N(c2ccccc2)c2ccccc2Cl)nc1)NO [citarinostat]
# Procedure, shortened: as §1
# [20] = compound: c1cc(OCCN2CCCCC2)cc(-c2n[nH]c3ccc(-c4nnc[nH]4)cc23)c1
# Procedure, shortened: as §1
Target,log2 fold change [1],log2 fold change [2],log2 fold change [3],log2 fold change [4],log2 fold change [5],log2 fold change [6],log2 fold change [7],log2 fold change [8],log2 fold change [9],log2 fold change [10],log2 fold change [11],log2 fold change [12],log2 fold change [13],log2 fold change [14],log2 fold change [15],log2 fold change [16],log2 fold change [17],log2 fold change [18],log2 fold change [19],log2 fold change [20]
MOCS3 (UniProt O95396),inactive: 0.036,inactive: -0.032,inactive: -0.102,inactive: -0.042,inactive: 0.037,inactive: -0.145,inactive: -0.016,inactive: -0.147,inactive: -0.077,inactive: 0.1,inactive: 0.028,inactive: -0.162,inactive: 0.039,inactive: 0.003,inactive: -0.063,inactive: -0.048,,,,
MINDY2 (UniProt Q8NBR6),,,,,,inactive: -0.132,,inactive: 0.037,,,inactive: 0.271,,,,inactive: -0.19,inactive: 0.186,,,,
MPZL1 isoform 3 (UniProt O95297),,,,,,inactive: -0.084,,,,inactive: 0.024,,,,,,,inactive: 0.057,,,
MICOS10 (UniProt Q5TGZ0),inactive: -0.055,inactive: 0.061,inactive: -0.014,inactive: 0.007,inactive: -0.095,,inactive: -0.103,inactive: 0.007,inactive: 0.021,inactive: -0.098,inactive: -0.09,inactive: -0.152,inactive: 0,inactive: -0.188,inactive: 0.014,inactive: -0.064,,inactive: 0.197,inactive: 0.007,inactive: -0.024
MKRN3 (UniProt Q13064),,,inactive: 0.007,inactive: 0.017,inactive: -0.006,,inactive: 0.026,,inactive: -0.095,inactive: -0.438,,inactive: -0.368,inactive: 0.069,,,inactive: 0.061,inactive: 0.035,inactive: 0.055,inactive: -0.017,inactive: -0.079
MOSPD1 isoform 3 (UniProt Q9UJG1),,inactive: 0.065,inactive: -0.19,inactive: 0.08,inactive: 0.253,,,inactive: 0.368,,,inactive: -0.011,,,inactive: 0.068,inactive: 0.195,,,,,
MPHOSPH8 isoform 2 (UniProt Q99549),,,,,,inactive: -0.019,inactive: 0.01,inactive: 0.031,inactive: 0.257,inactive: 0.004,inactive: 0.161,inactive: -0.018,inactive: -0.191,,inactive: -0.083,inactive: 0.189,inactive: -0.025,inactive: -0.116,,
MORC2 (UniProt Q9Y6X9),inactive: -0.036,,,,,,inactive: 0.018,inactive: 0.126,,inactive: -0.193,inactive: -0.118,,,,inactive: -0.066,inactive: -0.151,,,,
MOB3B (UniProt Q86TA1),inactive: -0.023,inactive: 0.034,inactive: -0.168,inactive: -0.397,inactive: 0.032,inactive: 0.222,inactive: 0.01,inactive: 0.109,,inactive: -0.082,inactive: -0.288,inactive: -0.021,,inactive: -0.049,inactive: -0.023,,,,,
MOB2 isoform 3 (UniProt Q70IA6),inactive: 0.005,inactive: -0.039,inactive: -0.133,active: -1.47,inactive: 0.03,inactive: -0.069,inactive: 0.013,inactive: -0.108,,,inactive: -0.251,,,inactive: 0.044,inactive: 0.062,inactive: -0.368,,inactive: 0.056,,
MRPL52 (UniProt Q86TS9),,,,,,,,,inactive: 0.123,,,,inactive: 0.122,,,,inactive: 0.116,,inactive: -0.135,inactive: 0.001

# Source: the supplement of paper PMC10849652
